In PubChem BioAssay AID1508600 (Functional Genomics Laboratory (NCATS/FGL), 2020):
Among all 53,000 sequences or so, about 3,700 (7%) were called active.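 How the source made its calls: active means gene knockdowns whose robust z-score for IL-1 alpha signal is at least 2 or at most -2, so actives lie on both sides; inactive means the rest.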 This is one part of the list.

Test: Components of the Cytosolic LPS Sensing Pathway: Gene Identification via Genome-wide siRNA Screen;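 further: robust z of the log signal after scaling to non-targeting control siRNA wells of the plate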
Settings: RAW264.7 macrophages, IL-1a HTRF, actives lie on both sides, screened at 100 nM (by protocol), cells primed 5 h with Pam3CSK4 first
Procedure, shortened: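 Three distinct siRNAs per gene were tested singly at 100 nM in RAW264.7 macrophages. Following Pam3CSK4 priming and 24 hour LipidA transfection, IL-1a secretion was read by HTRF.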
In the case of “GCCACGAAACAUAGUCACUTT against 1810055G02Rik”, the z-score is reported as inactive: -0.909.
With CCUAUUUUUGCCCUAUAGUTT against Cfap52 the z-score was inactive: 0.209.
With CCACCAUCUGCUCUAAUCATT against Got2 the z-score was inactive: -0.37.
In the case of CCUGUUUCUAACAACCACUTT against Isg20, the z-score is reported as inactive: 0.264.
In the case of GGAAUCUGGGCUCUUACACTT against Tfap2a, the z-score is reported as inactive: -0.141.
With GGCAAAAAGCUCAAAAACATT against Fbxo32 the z-score was inactive: -1.78.
For CCAUGACCUAGGCAGAUAGTT against Tsga8, the z-score was inactive: -0.464.
For GGGAGCAUCAAAUUUUGAUTT against Wapl, the z-score was inactive: 0.832.
In the case of GGUUGUAUAACUCAGAUCUTT against Olfr1311, the z-score is reported as inactive: 1.14.
For GGUGCAUAAAGAGAGCGAUTT against Ric8b, the z-score was inactive: -0.567.
With UCGGAAAGGGCCAUGAUAATT against Bola1 the z-score was inactive: 0.898.
With CGAGUUUGUAAUGAUGCUATT against Cabp4 the z-score was active: 2.51.
For GCUAACUUACCCAAAGAAATT against Tnfaip3, the z-score was inactive: 1.41.
For CCAACUAUAACUCAGUCACTT against Ebf1, the z-score was inactive: -0.366.
For GGAUGUUACAAAAGUCUGGTT against Rcc1l, the z-score was inactive: -0.0458.
With GGAAAAAAGGAACAAAUGCTT against Pde5a the z-score was inactive: -0.962.
In the case of GGUCUAGCUCAAAAUCCCATT against Srek1, the z-score is reported as inactive: -1.3.
For “CCUUAAGGAAUGCCAGCAATT against 5930403N24Rik”, the z-score was inactive: -0.395.
In the case of GCUAUACACUUGGCCCAUUTT against Sfr1, the z-score is reported as inactive: -1.6.
For GGAAGAGCUGCUGAAAGAGTT against Tekt2, the z-score was inactive: 0.403.
In the case of GGACAAACUUCAAAAAGGUTT against Ccdc187, the z-score is reported as inactive: -0.305.
In the case of GGGUGUCUUCAACAAGUACTT against Dnttip1, the z-score is reported as inactive: -1.71.
For CGGAAUCAUACCCUGCUGUTT against Ube2q1, the z-score was inactive: -0.476.
With GGGAAAAGAGCUGGAUUCUTT against Pnpo the z-score was inactive: -0.195.
In the case of GCUAAAAGAUCAUUGGAGUTT against Ear10, the z-score is reported as inactive: -1.02.
In the case of GCAUCCUAGCAGAGAUUUATT against Pla2r1, the z-score is reported as inactive: 1.99.
In the case of GGUGUCUUUAUUUAAUAGGTT against Ccng2, the z-score is reported as inactive: -0.135.
With GGAAUCUACCACUUGGUUCTT against Chrdl2 the z-score was inactive: -0.936.
In the case of GGUGUUCAAAAAGUUUAACTT against Zswim1, the z-score is reported as inactive: 1.02.
For CGUUCAGGAAACUACAAAATT against Mto1, the z-score was inactive: 0.237.
With GCUCAUUGGGAUCAUUGGUTT against Fancd2 the z-score was inactive: 1.45.
For “GCUCGUUUGUGUAUAAGGATT against 4930503L19Rik”, the z-score was inactive: 0.276.
With GGGAUCAAGUGUUUCGCUGTT against Apbb1 the z-score was inactive: -0.516.
With GGCAUUAUGUCAUUGCUGATT against Alg14 the z-score was inactive: 0.682.
With GCCGAACGAAUCCUCAAGUTT against Trim56 the z-score was inactive: 0.979.
For CCAUAUGAAACUUAUAGCCTT against Nmi, the z-score was inactive: -0.104.
In the case of GCAAGGUGAUCACUCUCUCTT against Olfr187, the z-score is reported as inactive: 0.533.
In the case of “GCUCUUGGCAAGGACAAUUTT against A830019P07Rik”, the z-score is reported as inactive: 0.612.
In the case of GGUGGUUCAGUUCAAUCGUTT against Lamtor3, the z-score is reported as inactive: 0.974.
With GGAAAUUGACAGAAUGGUUTT against Syf2 the z-score was inactive: -0.287.
With GGUGUGGACUGUCAUCUCUTT against Olfr139 the z-score was inactive: 1.24.
In the case of GGAAAAAUCAUCCUGGCUCTT against Sptssa, the z-score is reported as inactive: -1.02.
With CCGGGAGAAUCAUCGAGAUTT against Cfap57 the z-score was inactive: -0.873.
For GGAUGACAUGUCAUCAAAGTT against Vmn1r89, the z-score was inactive: -1.38.
For GGUUCCAUUCCCUCACAAUTT against Bcl9, the z-score was inactive: -0.0313.
For GGUGGUCACUAAGAAGUUCTT against Prps1l1, the z-score was active: 2.48.
With GGGUAUCAUGGGAAACAGATT against Atp12a the z-score was inactive: -0.0515.
For GGAGUGUUAAGAUUUGGAATT against Chpt1, the z-score was inactive: 0.034.
For GGAUAAAUUUCAAGAUGUGTT against Naip5, the z-score was inactive: -0.552.
In the case of GGGAAAUCAAGAUCAUUUCTT against Olfr1294, the z-score is reported as inactive: 0.256.
In the case of GGGAUAGAGAAGAAGAAAATT against Dguok, the z-score is reported as inactive: -0.161.
For GGGACUGUAUAUGUAAAGATT against Adgb, the z-score was inactive: 0.509.
In the case of GGAUGAGGUAUUAACAAGUTT against Trir, the z-score is reported as inactive: -0.312.
With GGAAAUCAGACUGCUCAAGTT against Nek3 the z-score was inactive: -1.14.
For GCCACCUCAAUGAAAGGAGTT against Slc23a1, the z-score was inactive: 1.83.
For CUACGAGCCACUUCUGAGATT against Krt87, the z-score was inactive: -0.431.
With GCCUCAGUAUUGGUGCUCUTT against Shisal2b the z-score was inactive: -0.643.
With GGUCAAAUAAAACAGAAGATT against Denr the z-score was inactive: 0.724.
For GUUUUGUUUCAGAGCACAATT against Olfr898, the z-score was inactive: 0.465.
For GGAAGGAGUAUAUUAAUGCTT against Stx18, the z-score was inactive: -0.219.
In the case of CCUACUACCAGGAUGAACATT against Men1, the z-score is reported as inactive: -0.512.
With “GGAUUGCUGUAAAAUACAATT against Cdkn2aipnl” the z-score was active: 2.16.
With GCCUCAUGUACGGACACAATT against Mpp4 the z-score was inactive: -0.418.
For GGUGGUCUACCAGCAUUUGTT against Pde4dip, the z-score was active: 2.16.
For GCUGGAGACGUAUUUGUCCTT against Olfr294, the z-score was active: 2.17.
With GGUAAAAGCGAUUUGGACUTT against Gsc the z-score was inactive: -0.51.
In the case of GGCCAUCAGUAUCAGCAAATT against Hip1r, the z-score is reported as inactive: 0.547.
With GGUUAACGAGCACAUUACCTT against Lmod2 the z-score was inactive: -0.00208.
For GGCUAUUCGCUAUUGCCAUTT against Tssk3, the z-score was inactive: 0.135.
With GGGAUUAAUACAGCAAUUUTT against Ddx24 the z-score was inactive: -1.62.
With GGGUAUGGUUCUGUUGGCATT against Pxmp4 the z-score was inactive: -1.45.
For GGUUUUGGGUCUAUGCUUCTT against Sde2, the z-score was inactive: 0.311.
With GGCAGAUCUGAUCAACGGATT against Mtln the z-score was active: -2.14.
For “CCGAGAGUUAACCUCAAAATT against 4931440P22Rik”, the z-score was inactive: -0.894.
For CGAUAAGGGCUGUUUAUAUTT against Rnasel, the z-score was inactive: 0.26.
With CCAACCUUUCCGCAUGAUGTT against Rpusd1 the z-score was inactive: -0.237.
In the case of “GGGACACUGGGAAGAAACATT against 2810021J22Rik”, the z-score is reported as inactive: -0.548.
With GGGCAUGAUUUUCACUUCCTT against Gpr150 the z-score was inactive: 0.79.
For GGAGAUAUGGAAGAAGACATT against Pja2, the z-score was inactive: 0.566.
With GCUGCAUUGUGGAUUAUAUTT against Thumpd1 the z-score was inactive: 0.354.
For GCGACUUGCUGAAUGAUUUTT against Pfkm, the z-score was inactive: 0.968.
For CCCUCAGCAGUUUAUGGAUTT against Kin, the z-score was inactive: 0.27.
With CGAUUGACUUAAGAUUCAGTT against Hlf the z-score was inactive: -0.612.
In the case of GCUUUAGAAUUCCAUACGATT against Zfp114, the z-score is reported as inactive: 1.65.
With CGAAGUUCACUUCUUUGAGTT against Eif2a the z-score was inactive: 0.318.
With CCGUCCAAAUCCUUAUUGATT against Pcdhb2 the z-score was inactive: 0.425.
In the case of “GGAGAACCAUGAGAGGGACTT against 1700037C18Rik”, the z-score is reported as inactive: -0.0305.
In the case of UCAGCUGGUUUUAAUCUCUTT against Olfr1029, the z-score is reported as inactive: -0.193.
For GGGAAGAGAGACGAAAAAATT against Nufip1, the z-score was inactive: 1.13.
For CCAGCAACCUUAAGAAAUUTT against Ppp2r1a, the z-score was inactive: 1.33.
In the case of GGGACAGCAAAGAAGAUAATT against Rrad, the z-score is reported as inactive: -1.25.
In the case of GGAUGUGCUCUGUGAAUGCTT against Pgf, the z-score is reported as inactive: 0.533.
In the case of GGUGAUGAAGAUUUCAAAGTT against Tcf7, the z-score is reported as inactive: 0.598.
For GGGUUUACAAAAGAAUAUGTT against Nck2, the z-score was inactive: -1.53.
For GGAGAAAUUUAAGAAGAGUTT against Xrcc5, the z-score was inactive: 0.674.
In the case of GGUUGAAAUUCGGAAAAAATT against Mnat1, the z-score is reported as inactive: -0.95.
For GUCAUGGUAGGGAUUUACATT against Taar4, the z-score was active: -2.83.
For CCUCAAUUGCAUGUGACCUTT against Itgb1bp1, the z-score was active: -2.32.
In the case of GAAUCACAGGACUUCUGCATT against Bcl2, the z-score is reported as inactive: 0.124.
With GCAAGAAGUUCCUAUCAUCTT against Polr2b the z-score was inactive: -1.67.
In the case of GGAUGACAAUCAACAUUCCTT against Ppp6r1, the z-score is reported as inactive: -1.66.
With CCUCAUGCUAGCCUCAUGATT against Actg1 the z-score was inactive: -0.214.
In the case of GGACUUAAUCCCAUGGAGCTT against Gask1a, the z-score is reported as inactive: 0.345.
With GGAAGUGACCUGUCUGAAGTT against Gramd1a the z-score was inactive: 0.641.
In the case of GCUCCACAUGAGAUUCUCATT against Sec14l1, the z-score is reported as inactive: -1.92.
For GCCUACUCCCAAGAGGAAATT against Gprc5a, the z-score was active: 2.32.
